Data on 17 molecules can be found in PubChem BioAssay AID2685 (National Center for Advancing Translational Sciences (NCATS), 2010).

This is one part of the list. Shown are side measurements of this screen, not its main read-out; they come without a call. Compounds called inactive in the main read-out are mostly missing here. Words in brackets tell the shape of the fitted curve; partial curves, single points and poor fits give uncertain potencies.

As usually defined, the AC50 is the concentration giving half of the maximal activity seen. Read a low AC50 as activity at low concentration.

This assay is described as follows: qHTS Assay for Lipid Storage Modulators in Drosophila S3 Cells.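 As to cell number change: cells counted by Cell Tracker Red CMTPX staining in the red channel.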 The conditions noted are these: BODIPY lipid droplet fluorescence, 18-24 h; for cell number change: measured here: cell count max response, cells fed with added oleic acid. Summed up: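 Drosophila S3 cells loaded with oleic acid (400 uM, as added) and compounds at several concentrations; lipid droplets imaged by 488-nm laser-scanning cytometry, 500–530 nm intensity and object ratio to cell channel. Percent activity normalized to 20 uM Triacsin C.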
Background: qHTS replaces the single test concentration by a dilution series.

The mark [1] stands for this setting: measured here: cell number channel AC50, cells fed with added oleic acid.
Setting [2] is: measured here: lipid fluorescence (Fed channel) AC50, cells fed with added oleic acid.

Turning to `COc1cccc(NC(=O)C(NCC(C)(C)CN(C)C)c2ccccc2)c1` (stereo not given), the cell number change stood at 12.6%. As for `O=C(NC(c1ccccc1)c1ccccc1)C1CCCC1`, the cell number change was -12.4%. Moreover, the AC50 under setting [1] is 0.517 µM [falling, single point].

Turning to `CCOC(=O)c1cc2cc(CC(=O)c3ccc(OCC)cc3O)ccc2o1`, the cell number change is 15.7%. As for `CC(C)c1ccc(/C=C2\SC(=O)N(CC(=O)NC3CCS(=O)(=O)C3)C2=O)cc1` (stereo not given), the AC50 under setting [2] is 1.3 µM [falling, partial curve]. Regarding `COc1ccccc1CN(Cc1cc2cc3c(cc2[nH]c1=O)OCCO3)Cc1nnnn1Cc1ccco1`, the AC50 under setting [2] is 7.31 µM [falling, partial curve, poor fit]. As to `O=C(CSc1nnc(CNc2ccccc2)o1)N1CCCc2ccccc21`, the half-maximal activity concentration (AC50) under setting [2] is 29.1 µM [rising, partial curve, poor fit]. Take `COC(=O)c1ccc(CSc2nccn2C)cc1`: the cell number change amounted to 88.9%. Besides, under setting [1], the AC50 was 20.6 µM [rising, partial curve]. Also, the AC50 under setting [2] is 20.6 µM [rising, partial curve]. `CN1CCN(P(=O)(c2ccccc2)c2nc3ccccc3s2)CC1` (stereo not given): the cell number change is -38.4%. In addition, under setting [2], the AC50 is 0.326 µM [falling, full curve, poor fit]. With `Cc1cc(C(=O)N/N=C/c2c3ccccc3cc3ccccc23)n[nH]1`, the cell number change was found to be 16.1%. Under setting [2], the AC50 is 6.51 µM [rising, single point]. Take `c1ccc(-c2nnc(SCc3cn4ccsc4n3)o2)cc1`: the cell number change came out at 1.76%. Further, under setting [2], the AC50 is 1.46 µM [falling, partial curve]. For `Cn1c(=O)c2c(nc(CN3CCN(C(=O)c4ccco4)CC3)n2Cc2ccc(F)cc2)n(C)c1=O`, the cell number change was -15.9%. The concentration at half-maximal activity (AC50) under setting [2] was 3.66 µM [rising, single point]. In the case of `Cn1c(Cc2cccs2)nnc1SCC(=O)Nc1ccc(F)cc1F`, the cell number change was -24.5%. Besides, the AC50 under setting [1] was 3.26 µM [falling, full curve, poor fit]. On to `CCOc1ccccc1C(=O)Nc1cccc(-c2nnc(-c3ccccc3)o2)c1`, for which the cell number change turned out to be 39.7%. Also, the AC50 under setting [2] is 0.092 µM [rising, full curve, poor fit]. With `COc1cccc(-c2nnc(-c3ccccc3[N+](=O)[O-])o2)c1`, the cell number change came to 29.3%. The AC50 under setting [1] was 0.00651 µM [rising, full curve, poor fit]. As to `CC(C)c1ccc(O)c(NC(=S)NC(=O)c2ccc3c(c2)OCO3)c1`, the cell number change is -60.6%. Further, the AC50 under setting [1] is 16.4 µM [falling, single point]. For the molecule `CC(=O)NC(C)c1cc(F)c2cccnc2c1O` (stereo not given), the cell number change amounted to 22.3%. For the same molecule, the AC50 under setting [2] is 1.16 µM [rising, partial curve]. Regarding `CC(C)CC(c1nnnn1C(C)C)N1CCN(c2cccc(Cl)c2)CC1` (stereo not given), the cell number change was -2.37%. Moreover, the AC50 under setting [2] is 18.4 µM [falling, single point].
